Here are results for 1 substance from publication PMC9849262.

Amino acid sequences for entries named in this document (tags omitted).
UniProt P12813: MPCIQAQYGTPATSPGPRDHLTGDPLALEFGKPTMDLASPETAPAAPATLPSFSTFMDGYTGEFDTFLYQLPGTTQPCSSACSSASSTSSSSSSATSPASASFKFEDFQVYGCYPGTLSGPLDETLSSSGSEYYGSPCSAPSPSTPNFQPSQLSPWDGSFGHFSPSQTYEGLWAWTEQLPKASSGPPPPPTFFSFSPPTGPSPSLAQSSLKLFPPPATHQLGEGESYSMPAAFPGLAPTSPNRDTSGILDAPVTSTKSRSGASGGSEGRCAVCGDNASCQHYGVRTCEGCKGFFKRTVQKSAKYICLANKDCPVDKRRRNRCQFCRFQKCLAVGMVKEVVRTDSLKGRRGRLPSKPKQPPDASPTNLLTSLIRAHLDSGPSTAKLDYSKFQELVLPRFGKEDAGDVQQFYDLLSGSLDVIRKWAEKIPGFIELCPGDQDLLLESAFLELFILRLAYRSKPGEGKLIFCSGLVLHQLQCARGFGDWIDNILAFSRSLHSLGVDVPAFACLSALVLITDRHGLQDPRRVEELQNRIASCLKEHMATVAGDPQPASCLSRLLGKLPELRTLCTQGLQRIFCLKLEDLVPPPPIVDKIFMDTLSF
UniProt O09106: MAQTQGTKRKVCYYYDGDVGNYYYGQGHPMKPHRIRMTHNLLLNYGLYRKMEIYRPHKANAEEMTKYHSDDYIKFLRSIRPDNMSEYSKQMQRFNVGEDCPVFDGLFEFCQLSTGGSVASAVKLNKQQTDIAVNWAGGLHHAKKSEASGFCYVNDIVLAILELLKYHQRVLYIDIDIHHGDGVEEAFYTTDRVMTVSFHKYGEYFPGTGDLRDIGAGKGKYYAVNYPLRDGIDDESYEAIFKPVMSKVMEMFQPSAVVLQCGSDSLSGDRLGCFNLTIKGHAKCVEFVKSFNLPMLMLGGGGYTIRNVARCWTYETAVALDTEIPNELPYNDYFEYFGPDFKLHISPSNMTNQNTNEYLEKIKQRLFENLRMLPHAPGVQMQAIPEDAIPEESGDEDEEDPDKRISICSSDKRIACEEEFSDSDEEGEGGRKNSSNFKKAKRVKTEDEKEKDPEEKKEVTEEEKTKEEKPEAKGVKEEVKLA

Results are given in words; binding and its absence hold for the method and conditions named. In cells and extracts the contact can be indirect. Some results given as binding are weak or reduced against the parent protein; the word gives no strength.

The test has as its target Nur77 (NR4A1) (mouse (endogenous in Raw264.7)) (UniProt P12813). The experiment in a line: co-IP; Raw264.7 cells (control, H/R, Ad.Null+H/R, Ad.HDAC1+H/R) sonicated in BC300 buffer (20 mM Tris-HCl, 300 mM NaCl, 0.2 mM EDTA, 0.2% Tween-20, 10% glycerol); lysates incubated with anti-Nur77 or acetylated-lysine antibody 24 h at 4 °C, then A/G agarose beads; rabbit IgG as negative control.

On to “Histone deacetylase 1 (from UniProt O09106 1-482) (enzyme)”, for which the binding result is listed as “binds”.
